Reference: patent publication US7166598B2, “Piperazine derivatives” (Astellas Pharma Inc., priority 1998, dated 2007)
Some entries share one result that the patent states for a list of compounds.

Sequences of proteins named here, by UniProt entry; tags and fusion partners are left off.
UniProt P25103, whole entry: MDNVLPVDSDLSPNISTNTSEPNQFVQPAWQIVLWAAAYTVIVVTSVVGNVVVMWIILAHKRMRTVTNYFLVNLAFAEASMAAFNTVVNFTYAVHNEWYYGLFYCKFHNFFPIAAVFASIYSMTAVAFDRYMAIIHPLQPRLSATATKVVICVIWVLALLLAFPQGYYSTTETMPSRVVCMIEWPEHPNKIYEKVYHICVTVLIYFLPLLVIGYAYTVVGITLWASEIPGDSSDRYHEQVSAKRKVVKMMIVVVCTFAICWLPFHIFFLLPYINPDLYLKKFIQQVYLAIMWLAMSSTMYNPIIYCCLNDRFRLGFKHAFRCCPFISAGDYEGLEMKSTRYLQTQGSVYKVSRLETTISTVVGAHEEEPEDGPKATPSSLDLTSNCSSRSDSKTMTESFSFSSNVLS

What follows are compounds tested against T1, h-NK1 receptors (Homo sapiens, UniProt P25103) (assay: Evaluation of NK1 antagonist transport efficiency to the central nervous system using a h-NK1 receptor binding assay). Details: compound extracted from brain of male SD rats 5 min after i.v. injection, dose of 1 mg/kg; CHO cell membranes expressing h-NK1.
T1 construct: expressed in transfected cells; host or cells: CHO cells (permanent expression), crude cell membranes

SMILES | inhibition rate of 125I-BH-Substance P binding to h-NK1 receptors
Cc1ccc(CC2CN(CCN3C[C@@H](C)O[C@@H](C)C3)CCN2C(=O)c2cc(C(F)(F)F)cc(C(F)(F)F)c2)cc1O.Cl.Cl (relative stereo) [Example 4-(1), 1-[3,5-Bis(trifluoromethyl)benzoyl]-4-[2-(cis-2,6-dimethylmorpholino)ethyl]-2-(3-hydroxy-4-methylbenzyl)piperazine dihydrochloride] | more than 80%
COC[C@@H]1CN(CCN2CCN(C(=O)c3cc(C(F)(F)F)cc(C(F)(F)F)c3)C(Cc3ccc(C)c(O)c3)C2)[C@@H](C)CO1.Cl.Cl (stereo partly drawn) [4-(2), 1-[3,5-Bis(trifluoromethyl)benzoyl]-2-(3-hydroxy-4-methylbenzyl)-4-[2-[(2S,5S)-2-methoxymethyl-5-methylmorpholino]ethyl]piperazine dihydrochloride] | more than 80%
Cc1ccc(CC2CN(CC#Cc3cccnc3)CCN2C(=O)c2cc(C(F)(F)F)cc(C(F)(F)F)c2)cc1O.Cl.Cl (stereo not shown) [Example 7, 1-[3,5-bis(trifluoromethyl)benzoyl]-2-(3-hydroxy-4-methylbenzyl)-4-[3-(3-pyridyl)-2-propynyl]piperazine dihydrochloride] | more than 80%
Cc1ccc(CC2CN(CCCc3cccnc3)CCN2C(=O)c2cc(C(F)(F)F)cc(C(F)(F)F)c2)cc1O.Cl.Cl (stereo not shown) [Example 8, 1-[3,5-bis(trifluoromethyl)benzoyl]-2-(3-hydroxy-4-methylbenzyl)-4-[3-(3-pyridyl)propyl]piperazine dihydrochloride] | more than 80%
